Test results: the supplement of paper PMC8728848
This is one part of the list.

Tests used:
Experiment in all cases: glycan array binding signal (z-score within array); higher = stronger binding
Settings in all cases: glycan notation: IUPAC condensed, linker removed
[1] = target: Neu5Ac(a2-3)Gal6S(b1-4)[Fuc(a1-3)]GlcNAc
In short: (§1)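 Columns mapping to the same glycan were averaged after glycan names were converted to IUPAC-condensed notation. The data come from 3228 arrays in the Consortium for Functional Glycomics database, limited to those with an available protein sequence. Binding is reported as a within-array Z-score averaged across arrays of one protein sequence and across linkers.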

Neu5Ac(a2-3)GalNAc = target: Neu5Ac(a2-3)GalNAc
In short: as §1

[2] = target: Neu5Ac(a2-3)GalNAc(b1-4)GlcNAc
In short: as §1

[3] = target: Neu5Ac(a2-3)[GalNAc(b1-4)]Gal(b1-4)Glc
In short: as §1

[4] = target: Neu5Ac(a2-3)[GalNAc(b1-4)]Gal(b1-4)GlcNAc
In short: as §1

[5] = target: Neu5Ac(a2-3)[GalNAc(b1-4)]Gal(b1-4)GlcNAc(b1-3)GalNAc
In short: as §1

[6] = target: Neu5Ac(a2-3)[Neu5Ac(a2-6)]GalNAc
In short: as §1

Neu5Ac(a2-6)Gal = target: Neu5Ac(a2-6)Gal
In short: as §1

[7] = target: Neu5Ac(a2-6)Gal(b1-3)GlcNAc(b1-3)[Gal(b1-4)GlcNAc(b1-6)]Gal(b1-4)Glc
In short: as §1

Neu5Ac(a2-6)Gal(b1-4)Glc = target: Neu5Ac(a2-6)Gal(b1-4)Glc
In short: as §1

[8] = target: Neu5Ac(a2-6)Gal(b1-4)GlcNAc
In short: as §1

[9] = target: Neu5Ac(a2-6)Gal(b1-4)GlcNAc(b1-2)Man
In short: as §1

[10] = target: Neu5Ac(a2-6)Gal(b1-4)GlcNAc(b1-2)Man(a1-3)Man(b1-4)GlcNAc(b1-4)GlcNAc
In short: as §1

[11] = target: Neu5Ac(a2-6)Gal(b1-4)GlcNAc(b1-2)Man(a1-3)[Gal(b1-4)GlcNAc(b1-2)Man(a1-6)]Man(b1-4)GlcNAc(b1-4)GlcNAc
In short: as §1

[12] = target: Neu5Ac(a2-6)Gal(b1-4)GlcNAc(b1-2)Man(a1-3)[GlcNAc(b1-2)Man(a1-6)]Man(b1-4)GlcNAc(b1-4)GlcNAc
In short: as §1

[13] = target: Neu5Ac(a2-6)Gal(b1-4)GlcNAc(b1-2)Man(a1-3)[GlcNAc(b1-4)][Neu5Ac(a2-6)Gal(b1-4)GlcNAc(b1-2)Man(a1-6)]Man(b1-4)GlcNAc(b1-4)GlcNAc
In short: as §1

[14] = target: Neu5Ac(a2-6)Gal(b1-4)GlcNAc(b1-2)Man(a1-3)[Man(a1-6)]Man(b1-4)GlcNAc(b1-4)GlcNAc
In short: as §1

[15] = target: Neu5Ac(a2-6)Gal(b1-4)GlcNAc(b1-2)Man(a1-3)[Neu5Ac(a2-3)Gal(b1-4)GlcNAc(b1-2)Man(a1-6)]Man(b1-4)GlcNAc(b1-4)GlcNAc
In short: as §1

[16] = target: Neu5Ac(a2-6)Gal(b1-4)GlcNAc(b1-2)Man(a1-3)[Neu5Ac(a2-6)Gal(b1-4)GlcNAc(b1-2)Man(a1-6)]Man(b1-4)GlcNAc(b1-4)GlcNAc
In short: as §1

[17] = target: Neu5Ac(a2-6)Gal(b1-4)GlcNAc(b1-2)Man(a1-3)[Neu5Ac(a2-6)Gal(b1-4)GlcNAc(b1-2)Man(a1-6)]Man(b1-4)GlcNAc(b1-4)[Fuc(a1-6)]GlcNAc
In short: as §1

[18] = target: Neu5Ac(a2-6)Gal(b1-4)GlcNAc(b1-2)Man(a1-6)Man(b1-4)GlcNAc(b1-4)GlcNAc
In short: as §1

[19] = target: Neu5Ac(a2-6)Gal(b1-4)GlcNAc(b1-2)Man(a1-6)[Gal(b1-4)GlcNAc(b1-2)Man(a1-3)]Man(b1-4)GlcNAc(b1-4)GlcNAc
In short: as §1

[20] = target: Neu5Ac(a2-6)Gal(b1-4)GlcNAc(b1-2)Man(a1-6)[GlcNAc(b1-2)Man(a1-3)]Man(b1-4)GlcNAc(b1-4)GlcNAc
In short: as §1

[21] = target: Neu5Ac(a2-6)Gal(b1-4)GlcNAc(b1-2)Man(a1-6)[Man(a1-3)]Man(b1-4)GlcNAc(b1-4)GlcNAc
In short: as §1

[22] = target: Neu5Ac(a2-6)Gal(b1-4)GlcNAc(b1-2)[Neu5Ac(a2-6)Gal(b1-4)GlcNAc(b1-4)]Man(a1-3)[GlcNAc(b1-4)][Neu5Ac(a2-6)Gal(b1-4)GlcNAc(b1-2)[Neu5Ac(a2-6)Gal(b1-4)GlcNAc(b1-6)]Man(a1-6)]Man(b1-4)GlcNAc(b1-4)GlcNAc
In short: as §1

[23] = target: Neu5Ac(a2-6)Gal(b1-4)GlcNAc(b1-2)[Neu5Ac(a2-6)Gal(b1-4)GlcNAc(b1-4)]Man(a1-3)[GlcNAc(b1-4)][Neu5Ac(a2-6)Gal(b1-4)GlcNAc(b1-4)Man(a1-6)]Man(b1-4)GlcNAc(b1-4)GlcNAc
In short: as §1

[24] = target: Neu5Ac(a2-6)Gal(b1-4)GlcNAc(b1-2)[Neu5Ac(a2-6)Gal(b1-4)GlcNAc(b1-6)]Man(a1-6)[Neu5Ac(a2-6)Gal(b1-4)GlcNAc(b1-2)Man(a1-3)][GlcNAc(b1-4)]Man(b1-4)GlcNAc(b1-4)GlcNAc
In short: as §1

[25] = target: Neu5Ac(a2-6)Gal(b1-4)GlcNAc(b1-3)Gal(b1-3)GlcNAc
In short: as §1

[26] = target: Neu5Ac(a2-6)Gal(b1-4)GlcNAc(b1-3)Gal(b1-4)GlcNAc
In short: as §1

[27] = target: Neu5Ac(a2-6)Gal(b1-4)GlcNAc(b1-3)Gal(b1-4)GlcNAc(b1-2)Man(a1-3)[Neu5Ac(a2-6)Gal(b1-4)GlcNAc(b1-3)Gal(b1-4)GlcNAc(b1-2)Man(a1-6)]GalNAc
In short: as §1

[28] = target: Neu5Ac(a2-6)Gal(b1-4)GlcNAc(b1-3)Gal(b1-4)GlcNAc(b1-3)Gal(b1-4)GlcNAc
In short: as §1

[29] = target: Neu5Ac(a2-6)Gal(b1-4)GlcNAc(b1-3)Gal(b1-4)GlcNAc(b1-3)Gal(b1-4)GlcNAc(b1-2)Man(a1-3)[Neu5Ac(a2-6)Gal(b1-4)GlcNAc(b1-3)Gal(b1-4)GlcNAc(b1-3)Gal(b1-4)GlcNAc(b1-2)Man(a1-6)]GalNAc
In short: as §1

[30] = target: Neu5Ac(a2-6)Gal(b1-4)GlcNAc(b1-3)Gal(b1-4)GlcNAc(b1-3)GalNAc
In short: as §1

[31] = target: Neu5Ac(a2-6)Gal(b1-4)GlcNAc(b1-3)Gal(b1-4)GlcNAc(b1-3)[Neu5Ac(a2-6)Gal(b1-4)GlcNAc(b1-3)Gal(b1-4)GlcNAc(b1-6)]GalNAc
In short: as §1

[32] = target: Neu5Ac(a2-6)Gal(b1-4)GlcNAc(b1-3)Gal(b1-4)GlcNAc(b1-6)[Gal(b1-3)]GalNAc
In short: as §1

[33] = target: Neu5Ac(a2-6)Gal(b1-4)GlcNAc(b1-3)Gal(b1-4)[Fuc(a1-3)]GlcNAc(b1-3)Gal(b1-4)[Fuc(a1-3)]GlcNAc
In short: as §1

[34] = target: Neu5Ac(a2-6)Gal(b1-4)GlcNAc(b1-3)GalNAc
In short: as §1

[35] = target: Neu5Ac(a2-6)Gal(b1-4)GlcNAc(b1-3)[Neu5Ac(a2-6)Gal(b1-4)GlcNAc(b1-6)]GalNAc
In short: as §1

[36] = target: Neu5Ac(a2-6)Gal(b1-4)GlcNAc(b1-6)GalNAc
In short: as §1

[37] = target: Neu5Ac(a2-6)Gal(b1-4)GlcNAc(b1-6)[Gal(b1-3)GlcNAc(b1-3)]Gal(b1-4)Glc
In short: as §1

[38] = target: Neu5Ac(a2-6)Gal(b1-4)GlcNAc(b1-6)[Gal(b1-3)]GalNAc
In short: as §1

[39] = target: Neu5Ac(a2-6)Gal(b1-4)GlcNAc6S
In short: as §1

Neu5Ac(a2-6)GalNAc = target: Neu5Ac(a2-6)GalNAc
In short: as §1

[40] = target: Neu5Ac(a2-6)GalNAc(b1-4)GlcNAc
In short: as §1

[41] = target: Neu5Ac(a2-6)GalNAc(b1-4)GlcNAc6S
In short: as §1

B1: AT3G09350(27) (Arabidopsis thaliana), Q84J81 (protein)
chain: MAKDGPNWDGLLKWSLSHADGTRPTRQLSEEDRKWFMEAMQSQTVDVVKRMKEITLVMQTPEQVLVEHGVTPEDIQDLLDELQEHVESIDMANDLHSIGGLVPLLSFLKNSHANIRAKAADVVSTIVQNNPRSQELVMETNALESLLSNFTSDTDIHARTQALGAISSLIRHNKPGVTAFKLANGYAGLRDALASDSVRFQRKALNLLQYLLQEDDSDRSIATGLGFPRVMMHLASSDDAEIREAALRGLLELSREKNDGSSSIDKSDEKLRQLLEERIKGITLMSQEDLETVKEERQLVDLLWSICYNEPSSLREKGLVVLPGEDALPPDVASKLFEPPLRASAANRNATEKKDEPMKLLGP
glycan array binding signal (z-score) [1]: -0.42
glycan array binding signal (z-score) (Neu5Ac(a2-3)GalNAc): 0.458
glycan array binding signal (z-score) [2]: -0.608
glycan array binding signal (z-score) [3]: -0.788
glycan array binding signal (z-score) [4]: -0.121
glycan array binding signal (z-score) [5]: 0.312
glycan array binding signal (z-score) [6]: -0.855
glycan array binding signal (z-score) (Neu5Ac(a2-6)Gal): -0.683
glycan array binding signal (z-score) [7]: 0.54
glycan array binding signal (z-score) (Neu5Ac(a2-6)Gal(b1-4)Glc): -0.395
glycan array binding signal (z-score) [8]: 0.001
glycan array binding signal (z-score) [9]: 0.62
glycan array binding signal (z-score) [10]: -0.684
glycan array binding signal (z-score) [11]: -0.016
glycan array binding signal (z-score) [12]: 0.05
glycan array binding signal (z-score) [13]: -0.201
glycan array binding signal (z-score) [14]: -0.115
glycan array binding signal (z-score) [15]: -0.453
glycan array binding signal (z-score) [16]: 0.535
glycan array binding signal (z-score) [17]: -0.493
glycan array binding signal (z-score) [18]: -0.555
glycan array binding signal (z-score) [19]: -0.867
glycan array binding signal (z-score) [20]: -0.127
glycan array binding signal (z-score) [21]: -0.534
glycan array binding signal (z-score) [22]: -0.767
glycan array binding signal (z-score) [23]: 1.22
glycan array binding signal (z-score) [24]: 0.628
glycan array binding signal (z-score) [25]: -0.492
glycan array binding signal (z-score) [26]: -0.435
glycan array binding signal (z-score) [27]: -0.335
glycan array binding signal (z-score) [28]: 0.134
glycan array binding signal (z-score) [29]: 1.2
glycan array binding signal (z-score) [30]: 0.239
glycan array binding signal (z-score) [31]: -0.252
glycan array binding signal (z-score) [32]: -0.005
glycan array binding signal (z-score) [33]: -0.844
glycan array binding signal (z-score) [34]: -0.821
glycan array binding signal (z-score) [35]: -0.304
glycan array binding signal (z-score) [36]: -0.618
glycan array binding signal (z-score) [37]: 0.201
glycan array binding signal (z-score) [38]: -0.158
glycan array binding signal (z-score) [39]: -0.24
glycan array binding signal (z-score) (Neu5Ac(a2-6)GalNAc): -0.655
glycan array binding signal (z-score) [40]: -0.882
glycan array binding signal (z-score) [41]: -0.91
